This is one part of the list. The main result of the screen is listed elsewhere. These columns were measured beside it and carry no call. Most of these compounds were active or inconclusive in the main read-out, so they are no random draw. The note in brackets gives the kind of curve behind each potency; many fits are weak.
Assay: qHTS Assay for Modulators of Lamin A Splicing
Settings: HeLa LMNA splicing GFP/RFP minigene ratio, 48 h
Outline: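 Read-out is the ratio of GFP to DsRed2 object intensity, acquired by 488 nm laser-scanning cytometry on HeLa lamin A-EGFP minigene reporter cells. Compound incubation 48 hrs at 37 °C in Opti-MEM with 2% FBS; DMSO 0.5% final.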

[1] = measured here: GFP splicing reporter channel
[2] = measured here: RFP viability control channel

Row | Compound | AC50 [1] | AC50 [2]
1 | Nc1ccc(OCc2ccco2)cc1 | 0.282 µM [falling, full curve, poor fit] | –
2 | COC(=O)c1cc(NC(=O)CN(c2cccc(OC)c2)S(=O)(=O)c2ccccc2)ccc1Cl | – | 22.4 µM [rising, partial curve, poor fit]
3 | Cc1cc(OCC(=O)O/N=C(\N)c2ccccc2)cc(C)c1Cl | – | 20 µM [rising, single point]
4 | CCCn1c2ccccc2c2cnn(CC(=O)NCCc3ccc(OCC)cc3)c(=O)c21 | 22.4 µM [falling, partial curve] | 15.8 µM [falling, single point]
5 | CC(C)CNC(=S)N1CCN(C(c2ccccc2)c2ccccc2)CC1 | 35.5 µM [rising, single point] | 35.5 µM [rising, single point]
6 | Cc1ccc(Cl)cc1N1CCN(C(=O)Cn2ccc3ccccc3c2=O)CC1 | 11.2 µM [rising, partial curve, poor fit] | 15.8 µM [rising, partial curve]
7 | c1ccc(Sc2nc(N3CCCCC3)nc(N3CCCCC3)n2)nc1 | 22.4 µM [rising, single point] | –
8 | Cc1cccc(S(=O)(=O)NCCC(=O)OCC(=O)Nc2ccc(C#N)cc2)c1 | 0.0794 µM [rising, full curve, poor fit] | 0.0891 µM [rising, full curve, poor fit]
9 | Cc1cccc2sc(NNC(=O)c3ccc4c(c3)OCCO4)nc12 | 0.794 µM [falling, single point] | 17.8 µM [rising, single point]
10 | C/C(=N\NC(=O)CSCc1ccccc1Cl)c1cccc(NC(=O)c2ccccc2)c1 | – | 2 µM [rising, full curve]
11 | CC1CC(C)CN(C(=O)c2cccc(S(=O)(=O)Nc3cc(C(F)(F)F)ccc3Cl)c2)C1 (stereo not given) | – | 12.6 µM [rising, partial curve]
12 | CCN(Cc1cc(=O)n2ccsc2n1)c1cccc2ccccc12 | – | 31.6 µM [rising, single point]
13 | Cc1cc(C)nc(SCc2cc(=O)c(OC(=O)c3ccc(S(=O)(=O)N4CCCC4)cc3)co2)n1 | 0.282 µM [rising, partial curve, poor fit] | –
14 | Cc1ccc(S(=O)(=O)Cn2nnnc2C(CC(C)C)N2CCN(C(=O)c3ccco3)CC2)cc1 (stereo not given) | 12.6 µM [rising, single point] | –
15 | O=C(CNC(=O)c1ccccc1)N/N=C/c1cccs1 | – | 1.58 µM [falling, partial curve, poor fit]
16 | OC(CNCCCN1CCCCC1)COc1ccccc1 (stereo not given) | – | 28.2 µM [rising, single point]
17 | COc1ccc(F)cc1S(=O)(=O)NCCc1c(C)[nH]c2c(Cl)cccc12 | 31.6 µM [falling, partial curve, poor fit] | 20 µM [falling, partial curve, poor fit]
18 | O=c1[nH]n(CC2COC3(CCCCC3)O2)c(=O)c2ccccc12 (stereo not given) | 8.91 µM [rising, partial curve] | 11.2 µM [rising, partial curve]

Single records, from the list above. Values in the order: AC50 [1] | AC50 [2]
OC(CNCCCN1CCCCC1)COc1ccccc1 (stereo not given) in the list: – | 28.2 µM [rising, single point]
CC(C)CNC(=S)N1CCN(C(c2ccccc2)c2ccccc2)CC1 in the list: 35.5 µM [rising, single point] | 35.5 µM [rising, single point]

(continued)

Row | Compound | AC50 [1] | AC50 [2]
19 | CC(=O)N1CCN(c2ccc(NC(=O)c3ccc(Br)o3)cc2Cl)CC1 | 35.5 µM [falling, partial curve] | –
20 | CCCNC(=S)Nc1ccc(Cl)cc1Cl | 31.6 µM [rising, single point] | 15.8 µM [rising, single point]
21 | S=C(S)OC1CC2CC1C1CCCC21 (stereo not given) | 17.8 µM [falling, single point] | 11.2 µM [rising, partial curve, poor fit]
22 | O=C(Nc1ccc(Cl)cc1)N1CCN(c2ncccn2)CC1 | 3.16 µM [falling, full curve, poor fit] | 3.98 µM [falling, full curve, poor fit]
23 | Cc1ccc(Cl)cc1N1CCN(C(=O)COc2ccc(S(=O)(=O)NC(C)C)cc2)CC1 | – | 3.98 µM [rising, single point]
24 | COc1ccc(C(c2nnnn2Cc2cccs2)N2CCN(c3ccc(F)cc3)CC2)cc1OC (stereo not given) | – | 17.8 µM [rising, single point]
25 | COc1ccc(/C=N/S(=O)(=O)c2ccccc2)cc1OC | 0.1 µM [rising, full curve] | 0.1 µM [rising, full curve, poor fit]
26 | Cc1nc(C)c(-c2csc(Nc3cccc(O)c3)n2)s1 | 14.1 µM [rising, partial curve, poor fit] | –
27 | Cn1c(NCCCN2CCOCC2)nc2c1c(=O)n(Cc1ccc(Cl)cc1Cl)c(=O)n2C | – | 8.91 µM [rising, partial curve, poor fit]
28 | Cc1ccc(C(=O)N/N=C/C2=Cc3ccccc3OC2C)cc1 (stereo not given) | – | 0.00447 µM [rising, full curve, poor fit]
29 | CCOC(=O)N1CCN(C(=O)COc2ccc(S(=O)(=O)Nc3ccc(OCC)cc3)cc2)CC1 | 10 µM [rising, partial curve] | 12.6 µM [rising, partial curve]
30 | Cc1ccc(Cl)cc1N1CCN(C(=O)c2cccc3c(=O)c(C)c(-c4ccccc4)oc23)CC1 | 5.62 µM [rising, single point] | 5.62 µM [rising, single point]
31 | COc1cc(NC(=O)CCc2nc(-c3cccs3)no2)cc(OC)c1OC | 3.16 µM [rising, partial curve, poor fit] | 35.5 µM [rising, single point]
32 | CCc1ccc(NC(=O)Cn2c(SC)nc3ccccc32)cc1 | – | 12.6 µM [rising, partial curve]
33 | O=C(Nc1ncc2c(n1)-c1ccccc1CC2)C1CC1 | – | 0.02 µM [falling, full curve, poor fit]
34 | Cc1c(/C=N/NC(=O)C(NC(=O)c2ccc3c(c2)OCO3)C(C)C)c2ccccc2n1C (stereo not given) | – | 11.2 µM [rising, partial curve]
35 | CCC(Oc1ccccc1)C(=O)Nc1ccsc1C(=O)OC (stereo not given) | 11.2 µM [rising, partial curve, poor fit] | 11.2 µM [rising, partial curve]

Source: PubChem BioAssay AID1487 (National Center for Advancing Translational Sciences (NCATS), 2009)
